Values quoted from earlier work as cited in US11271238B2, “Applications of low-cost, thermal and electrochemically stable organic compounds as high performance redox active materials in redox flow batteries” (Utah State University, priority 2018, dated 2022).
For at least one compound, name, drawing or mass did not settle the structure.

Details: cited from earlier work

C[n+]1ccc(-c2cc[n+](C)cc2)cc1 [Methyl viologen]
first single-electron reduction potential: −0.45 V (vs. NHE) | second single-electron reduction potential: −0.76 V (vs. NHE)
